Source: the supplement of paper PMC10849652
The other results are listed elsewhere or left out.

Protein sequences, listed by entry. Tags and fused reporters are not part of them. Lines headed by an entry give the natural chain unless they say otherwise; changes in a name come on top.
UniProt P36915, whole entry, looked up: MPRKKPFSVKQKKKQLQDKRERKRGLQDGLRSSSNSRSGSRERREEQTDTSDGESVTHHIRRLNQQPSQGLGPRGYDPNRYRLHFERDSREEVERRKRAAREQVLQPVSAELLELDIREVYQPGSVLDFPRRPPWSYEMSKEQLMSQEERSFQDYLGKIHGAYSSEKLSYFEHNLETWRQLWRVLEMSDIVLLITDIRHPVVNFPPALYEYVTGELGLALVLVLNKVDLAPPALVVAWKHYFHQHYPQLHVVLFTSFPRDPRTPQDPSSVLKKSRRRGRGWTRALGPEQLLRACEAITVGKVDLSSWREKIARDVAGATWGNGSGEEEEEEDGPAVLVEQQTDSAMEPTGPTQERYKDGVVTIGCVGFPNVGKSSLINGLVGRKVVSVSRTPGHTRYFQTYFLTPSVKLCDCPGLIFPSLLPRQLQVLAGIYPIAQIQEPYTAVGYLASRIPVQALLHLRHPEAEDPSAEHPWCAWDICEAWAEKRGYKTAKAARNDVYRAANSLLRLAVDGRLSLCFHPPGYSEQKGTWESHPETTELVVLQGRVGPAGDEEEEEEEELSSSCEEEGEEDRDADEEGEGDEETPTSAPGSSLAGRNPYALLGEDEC
UniProt P62879, whole entry, looked up: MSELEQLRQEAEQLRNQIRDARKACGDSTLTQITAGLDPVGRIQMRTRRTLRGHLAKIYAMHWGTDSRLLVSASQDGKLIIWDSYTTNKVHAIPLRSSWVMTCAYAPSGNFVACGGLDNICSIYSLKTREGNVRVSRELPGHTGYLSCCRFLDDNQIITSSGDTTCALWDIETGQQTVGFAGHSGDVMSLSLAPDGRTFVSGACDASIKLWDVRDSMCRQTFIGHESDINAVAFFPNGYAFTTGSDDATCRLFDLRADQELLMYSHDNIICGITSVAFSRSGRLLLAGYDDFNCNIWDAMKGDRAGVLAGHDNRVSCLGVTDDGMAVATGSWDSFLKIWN
UniProt O95749: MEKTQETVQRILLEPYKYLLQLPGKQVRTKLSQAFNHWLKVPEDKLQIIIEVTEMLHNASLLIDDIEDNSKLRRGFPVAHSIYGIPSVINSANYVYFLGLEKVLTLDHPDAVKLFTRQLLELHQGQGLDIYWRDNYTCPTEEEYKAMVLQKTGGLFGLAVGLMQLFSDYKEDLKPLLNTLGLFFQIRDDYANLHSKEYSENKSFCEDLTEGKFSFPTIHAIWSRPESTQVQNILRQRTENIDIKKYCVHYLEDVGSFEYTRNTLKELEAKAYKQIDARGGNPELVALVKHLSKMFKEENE
UniProt O14653: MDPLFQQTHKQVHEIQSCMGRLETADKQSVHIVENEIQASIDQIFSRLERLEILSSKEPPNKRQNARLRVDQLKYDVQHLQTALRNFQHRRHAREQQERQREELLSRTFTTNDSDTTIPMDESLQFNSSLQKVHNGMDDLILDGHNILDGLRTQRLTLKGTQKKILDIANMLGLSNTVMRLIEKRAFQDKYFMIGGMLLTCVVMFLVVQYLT
UniProt P16520, whole entry, looked up: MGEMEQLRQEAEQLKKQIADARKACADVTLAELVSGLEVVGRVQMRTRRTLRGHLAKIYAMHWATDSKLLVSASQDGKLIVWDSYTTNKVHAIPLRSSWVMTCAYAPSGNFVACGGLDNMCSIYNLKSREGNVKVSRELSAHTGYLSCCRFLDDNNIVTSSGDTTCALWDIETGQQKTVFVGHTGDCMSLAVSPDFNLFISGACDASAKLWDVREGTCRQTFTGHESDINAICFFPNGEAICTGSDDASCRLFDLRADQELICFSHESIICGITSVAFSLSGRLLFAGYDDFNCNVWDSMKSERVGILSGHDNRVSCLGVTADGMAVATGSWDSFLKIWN
UniProt Q9NZ52: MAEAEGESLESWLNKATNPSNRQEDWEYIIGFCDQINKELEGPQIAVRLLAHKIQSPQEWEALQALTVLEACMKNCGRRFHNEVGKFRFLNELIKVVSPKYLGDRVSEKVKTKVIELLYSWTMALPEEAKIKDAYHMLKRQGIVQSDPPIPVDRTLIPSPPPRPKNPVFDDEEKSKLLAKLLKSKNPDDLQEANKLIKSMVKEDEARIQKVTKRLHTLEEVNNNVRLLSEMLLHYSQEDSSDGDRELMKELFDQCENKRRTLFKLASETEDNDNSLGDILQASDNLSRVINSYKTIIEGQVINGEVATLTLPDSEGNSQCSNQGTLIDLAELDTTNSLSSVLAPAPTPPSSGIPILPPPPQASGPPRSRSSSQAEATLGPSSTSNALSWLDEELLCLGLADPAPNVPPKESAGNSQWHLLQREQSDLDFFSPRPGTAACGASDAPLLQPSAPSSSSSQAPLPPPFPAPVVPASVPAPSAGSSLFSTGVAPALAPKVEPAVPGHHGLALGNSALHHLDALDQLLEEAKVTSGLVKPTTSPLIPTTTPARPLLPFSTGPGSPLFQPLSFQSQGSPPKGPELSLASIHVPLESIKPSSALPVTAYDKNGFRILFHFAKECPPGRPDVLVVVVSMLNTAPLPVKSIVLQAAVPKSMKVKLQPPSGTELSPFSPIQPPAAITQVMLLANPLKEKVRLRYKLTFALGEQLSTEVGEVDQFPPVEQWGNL
UniProt Q9BVP2: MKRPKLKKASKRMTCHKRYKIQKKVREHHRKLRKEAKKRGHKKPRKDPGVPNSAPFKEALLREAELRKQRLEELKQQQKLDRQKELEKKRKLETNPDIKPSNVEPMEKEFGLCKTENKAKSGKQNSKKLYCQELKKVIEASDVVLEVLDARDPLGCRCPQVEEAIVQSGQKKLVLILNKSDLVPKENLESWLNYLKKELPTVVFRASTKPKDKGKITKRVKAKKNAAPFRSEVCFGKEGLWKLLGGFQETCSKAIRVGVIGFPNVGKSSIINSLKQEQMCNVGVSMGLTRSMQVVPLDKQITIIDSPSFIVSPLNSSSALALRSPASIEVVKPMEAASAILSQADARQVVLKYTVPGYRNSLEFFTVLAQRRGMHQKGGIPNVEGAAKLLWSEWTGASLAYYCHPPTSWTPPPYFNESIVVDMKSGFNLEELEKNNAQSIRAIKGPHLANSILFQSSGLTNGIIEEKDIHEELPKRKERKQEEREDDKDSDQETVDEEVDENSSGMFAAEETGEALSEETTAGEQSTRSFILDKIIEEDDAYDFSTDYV
UniProt Q92805: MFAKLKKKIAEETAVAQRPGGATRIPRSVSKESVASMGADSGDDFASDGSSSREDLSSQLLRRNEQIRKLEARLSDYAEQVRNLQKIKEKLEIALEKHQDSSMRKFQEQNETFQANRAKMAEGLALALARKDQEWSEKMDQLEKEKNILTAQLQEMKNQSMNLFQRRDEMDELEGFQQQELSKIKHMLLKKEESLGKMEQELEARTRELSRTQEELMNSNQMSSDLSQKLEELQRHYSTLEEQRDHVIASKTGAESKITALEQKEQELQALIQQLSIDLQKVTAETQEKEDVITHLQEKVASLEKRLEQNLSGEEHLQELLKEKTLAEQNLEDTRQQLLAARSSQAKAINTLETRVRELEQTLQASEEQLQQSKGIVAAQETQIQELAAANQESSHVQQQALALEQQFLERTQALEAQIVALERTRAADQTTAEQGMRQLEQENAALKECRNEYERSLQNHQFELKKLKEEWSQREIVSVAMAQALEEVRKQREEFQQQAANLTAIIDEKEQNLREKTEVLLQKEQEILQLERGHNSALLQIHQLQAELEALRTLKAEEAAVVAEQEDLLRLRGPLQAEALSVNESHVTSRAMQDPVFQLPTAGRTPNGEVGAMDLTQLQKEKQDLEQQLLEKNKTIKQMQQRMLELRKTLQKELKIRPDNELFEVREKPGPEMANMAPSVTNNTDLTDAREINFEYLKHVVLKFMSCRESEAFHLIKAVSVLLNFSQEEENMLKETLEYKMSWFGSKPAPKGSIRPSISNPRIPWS
UniProt Q9Y692: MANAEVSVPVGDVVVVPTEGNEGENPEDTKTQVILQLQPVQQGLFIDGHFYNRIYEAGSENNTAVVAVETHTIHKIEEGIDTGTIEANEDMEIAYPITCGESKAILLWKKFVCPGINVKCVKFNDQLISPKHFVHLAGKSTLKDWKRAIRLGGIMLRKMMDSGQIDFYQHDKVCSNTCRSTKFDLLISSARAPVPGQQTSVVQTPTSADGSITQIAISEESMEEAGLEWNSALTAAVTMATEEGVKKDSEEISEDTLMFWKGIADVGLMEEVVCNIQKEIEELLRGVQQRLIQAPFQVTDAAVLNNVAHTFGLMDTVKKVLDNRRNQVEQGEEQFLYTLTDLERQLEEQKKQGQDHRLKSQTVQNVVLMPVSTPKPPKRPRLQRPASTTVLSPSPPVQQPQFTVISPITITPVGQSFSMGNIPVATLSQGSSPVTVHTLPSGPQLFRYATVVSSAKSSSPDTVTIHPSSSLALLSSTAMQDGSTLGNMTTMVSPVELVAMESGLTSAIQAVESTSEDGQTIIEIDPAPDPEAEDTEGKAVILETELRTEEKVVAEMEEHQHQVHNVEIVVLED
UniProt Q8TDQ7: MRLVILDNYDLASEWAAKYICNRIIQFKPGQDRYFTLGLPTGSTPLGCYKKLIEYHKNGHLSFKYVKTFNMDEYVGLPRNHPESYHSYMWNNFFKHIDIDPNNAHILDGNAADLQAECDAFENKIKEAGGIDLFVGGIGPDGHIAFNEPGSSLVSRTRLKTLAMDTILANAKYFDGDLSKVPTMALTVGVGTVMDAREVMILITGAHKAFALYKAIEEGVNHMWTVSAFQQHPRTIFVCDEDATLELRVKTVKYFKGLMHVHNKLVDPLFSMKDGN
UniProt B7ZAQ6: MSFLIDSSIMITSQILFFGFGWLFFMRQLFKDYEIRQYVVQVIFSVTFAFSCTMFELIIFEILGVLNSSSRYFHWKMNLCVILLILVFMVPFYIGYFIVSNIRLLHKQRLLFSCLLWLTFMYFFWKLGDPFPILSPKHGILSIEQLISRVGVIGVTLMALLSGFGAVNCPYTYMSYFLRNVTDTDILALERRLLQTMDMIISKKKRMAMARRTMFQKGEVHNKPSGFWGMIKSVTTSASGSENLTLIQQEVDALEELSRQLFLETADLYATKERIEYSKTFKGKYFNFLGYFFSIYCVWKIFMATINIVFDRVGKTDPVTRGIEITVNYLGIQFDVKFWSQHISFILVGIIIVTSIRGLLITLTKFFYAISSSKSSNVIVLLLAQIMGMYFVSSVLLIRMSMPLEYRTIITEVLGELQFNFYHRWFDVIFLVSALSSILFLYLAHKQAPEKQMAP
UniProt P06280: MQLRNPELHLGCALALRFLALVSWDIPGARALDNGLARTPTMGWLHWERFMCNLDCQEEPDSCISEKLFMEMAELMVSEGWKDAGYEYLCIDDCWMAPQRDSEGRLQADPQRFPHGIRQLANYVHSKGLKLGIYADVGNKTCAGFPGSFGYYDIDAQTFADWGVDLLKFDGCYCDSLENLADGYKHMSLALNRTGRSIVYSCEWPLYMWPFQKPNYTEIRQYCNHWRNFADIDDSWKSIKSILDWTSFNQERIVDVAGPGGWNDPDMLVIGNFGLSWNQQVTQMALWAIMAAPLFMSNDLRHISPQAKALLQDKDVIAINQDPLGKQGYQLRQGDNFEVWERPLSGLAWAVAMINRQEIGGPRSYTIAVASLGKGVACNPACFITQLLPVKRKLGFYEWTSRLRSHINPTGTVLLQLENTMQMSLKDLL
UniProt Q9UJ14: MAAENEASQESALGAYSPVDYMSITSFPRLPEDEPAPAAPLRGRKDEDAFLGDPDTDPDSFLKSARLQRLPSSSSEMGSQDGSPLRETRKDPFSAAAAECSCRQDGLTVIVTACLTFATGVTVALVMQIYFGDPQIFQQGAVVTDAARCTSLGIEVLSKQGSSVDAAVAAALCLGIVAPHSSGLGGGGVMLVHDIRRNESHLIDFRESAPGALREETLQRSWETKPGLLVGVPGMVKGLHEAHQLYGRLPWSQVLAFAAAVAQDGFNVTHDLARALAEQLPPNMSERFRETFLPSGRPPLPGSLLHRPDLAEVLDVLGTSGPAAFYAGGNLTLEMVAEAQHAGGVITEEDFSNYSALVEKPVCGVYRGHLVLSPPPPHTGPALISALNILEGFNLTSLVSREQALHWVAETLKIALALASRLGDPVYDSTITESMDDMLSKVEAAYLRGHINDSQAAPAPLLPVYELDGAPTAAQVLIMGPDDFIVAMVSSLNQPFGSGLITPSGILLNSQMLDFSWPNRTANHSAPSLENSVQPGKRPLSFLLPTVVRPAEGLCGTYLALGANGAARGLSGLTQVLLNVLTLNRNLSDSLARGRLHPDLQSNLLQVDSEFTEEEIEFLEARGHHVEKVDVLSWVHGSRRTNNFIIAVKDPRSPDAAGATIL
UniProt O76003: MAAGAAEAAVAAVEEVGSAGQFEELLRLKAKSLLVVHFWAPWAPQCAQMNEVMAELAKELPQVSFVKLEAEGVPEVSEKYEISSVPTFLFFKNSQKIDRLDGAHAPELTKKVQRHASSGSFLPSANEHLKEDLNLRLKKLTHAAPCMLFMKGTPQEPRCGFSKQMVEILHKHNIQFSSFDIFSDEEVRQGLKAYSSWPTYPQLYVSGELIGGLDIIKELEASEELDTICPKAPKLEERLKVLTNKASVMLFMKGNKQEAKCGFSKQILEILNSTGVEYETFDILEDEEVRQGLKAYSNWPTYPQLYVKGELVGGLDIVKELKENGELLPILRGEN

Tests used:
Test in all cases: log2 fold change, soluble protein after heating vs DMSO (PISA); higher = thermal stabilisation; K562 lysate, 10 uM; active = over 0.2 and 3.5 SD of the protein, either way, in both replicates (recomputed)
[1] = compound: CCCS(=O)(=O)Nc1ccc(F)c(C(=O)c2c[nH]c3ncc(-c4ccc(Cl)cc4)cc23)c1F [vemurafenib]
In short: (§1)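 Dounce homogenisation of K562 pellets in PBS pH 7.4 with 1 mM MgCl2 produced a crude extract, used at 1 mg/mL protein. Exposure to 10 μM compound lasted 30 min, and aliquots were then heated for 3 min across 48°C-58°C, pooled and brought to 0.5% NP-40 at 4°C. The supernatant after 21,000xg for 90 min was quantified by TMTpro 16plex LC-MS/MS with channel sums equalised. Duplicate values are given as log-two fold change in thermal stability relative to solvent controls.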

[2] = compound: CCCS(=O)(=O)Nc1ccc(F)c(C(=O)c2c[nH]c3ncc(Cl)cc23)c1F
In short: as §1

[3] = compound: CCN(CCCOc1ccc2c(Nc3cc(CC(=O)Nc4cccc(F)c4)[nH]n3)ncnc2c1)CCOP(=O)(O)O [barasertib]
In short: as §1

[4] = compound: CC[C@@H]1C(=O)N(C)c2cnc(Nc3ccc(C(=O)NC4CCN(C)CC4)cc3OC)nc2N1C1CCCC1
In short: as §1

[5] = compound: CC[C@@H]1C(=O)N(C)c2cnc(Nc3ccc(C(=O)N[C@H]4CC[C@H](N5CCN(CC6CC6)CC5)CC4)cc3OC)nc2N1C(C)C [volasertib]
In short: as §1

[6] = compound: CCn1c(C(=O)N(C2CC2)C2CC2)cc2c3c(ncn3C)c(Nc3cc(C)n(C)n3)nc21
In short: as §1

[7] = compound: CCn1cc(-c2ccnc3[nH]c(-c4cccc(CN(C)C)c4)cc23)c(-c2ccc(NC(=O)N(C)C)cc2)n1
In short: as §1

[8] = compound: CN1CCC(CNc2ccc3ncc(-c4cccc(OC(F)(F)F)c4)n3n2)CC1
In short: as §1

[9] = compound: CN1CCN(CCOc2cc(OC3CCOCC3)c3c(Nc4c(Cl)ccc5c4OCO5)ncnc3c2)CC1 [saracatinib]
In short: as §1

[10] = compound: CN1CCN(c2nc(C3=C(c4c[nH]c5ccccc45)C(=O)NC3=O)c3ccccc3n2)CC1 [sotrastaurin]
In short: as §1

Measured: log2 fold change

GPHN isoform 2 (UniProt Q9NQX3)
inactive: [1] -0.011 | [2] 0.014 | [3] -0.008 | [4] 0.022 | [5] 0.014 | [6] 0.011 | [7] -0.02 | [8] 0.054 | [9] 0.011 | [10] 0.008

GNL1 (UniProt P36915)
inactive: [1] 0.009 | [2] 0.034 | [3] 0.002 | [4] -0.041 | [5] -0.046 | [6] 0.014 | [7] 0.028 | [8] -0.041 | [9] 0.007 | [10] 0.007

GNB2 (UniProt P62879)
inactive: [1] 0.02 | [2] -0.007 | [3] 0.011 | [4] -0.052 | [5] 0.021 | [6] 0.014 | [7] -0.013 | [8] 0.049 | [9] -0.027 | [10] -0.02

GLRX2 (UniProt Q9NS18)
inactive: [1] -0.099 | [2] 0.017 | [3] 0.004 | [4] 0.097 | [5] -0.025 | [6] 0.026 | [7] 0.132 | [8] -0.045 | [9] -0.03 | [10] 0.004

GGPS1 (UniProt O95749)
inactive: [1] 0.047 | [2] -0.013 | [3] -0.039 | [4] -0.004 | [5] -0.016 | [6] -0.022 | [7] 0.021 | [8] -0.034 | [9] -0.019 | [10] -0.004

GOSR2 isoform 2 (UniProt O14653)
inactive: [1] 0.014 | [2] 0.055 | [3] -0.028 | [4] 0.021 | [5] 0 | [6] 0.047 | [7] 0.132 | [8] -0.123 | [9] 0.008 | [10] -0.018

GPATCH8 (UniProt Q9UKJ3)
inactive: [1] 0.025 | [2] -0.035 | [3] 0.044 | [4] 0.006 | [5] 0.02 | [6] 0.024 | [7] 0.019 | [8] 0.023 | [9] 0.043 | [10] -0.017

GNB3 (UniProt P16520)
inactive: [1] 0.06 | [2] -0.084 | [3] 0.021 | [4] 0.017 | [5] 0.061 | [6] -0.055 | [7] -0.123 | [8] 0.046 | [9] -0.099 | [10] 0.028

GGA3 (UniProt Q9NZ52)
inactive: [1] -0.109 | [2] 0.022 | [3] -0.032 | [4] -0.063 | [5] -0.027 | [6] 0.068 | [7] -0.023 | [8] 0 | [9] 0.007 | [10] 0.005

GNB1L (UniProt Q9BYB4)
inactive: [1] -0.009 | [2] 0.047 | [3] 0 | [4] 0.015 | [5] -0.012 | [6] -0.007 | [7] -0.02 | [8] 0.047 | [9] -0.013 | [10] -0.003

2 neighbouring entries already listed:
GPHN isoform 2 (UniProt Q9NQX3)
inactive: [1] -0.011 | [2] 0.014 | [3] -0.008 | [4] 0.022 | [5] 0.014 | [6] 0.011 | [7] -0.02 | [8] 0.054 | [9] 0.011 | [10] 0.008

GNL1 (UniProt P36915)
inactive: [1] 0.009 | [2] 0.034 | [3] 0.002 | [4] -0.041 | [5] -0.046 | [6] 0.014 | [7] 0.028 | [8] -0.041 | [9] 0.007 | [10] 0.007

(continued)

GOLGA2 (UniProt Q08379)
inactive: [1] 0.015 | [2] -0.006 | [3] 0.046 | [4] 0.002 | [5] -0.008 | [6] 0.017 | [7] -0.03 | [8] -0.069 | [9] 0.019 | [10] -0.021

GNL3 (UniProt Q9BVP2)
inactive: [1] 0.051 | [2] 0.041 | [3] 0.032 | [4] -0.078 | [5] 0.004 | [6] -0.07 | [7] 0.129 | [8] -0.066 | [9] 0.004 | [10] 0.013

GORAB (UniProt Q5T7V8)
inactive: [1] 0.121 | [2] 0.02 | [3] -0.013 | [4] 0.07 | [5] 0.005 | [6] -0.024 | [7] 0.088 | [8] -0.012 | [9] -0.023 | [10] 0.001

GNA13 (UniProt Q14344)
inactive: [1] 0.036 | [2] 0.012 | [3] 0.062 | [4] 0.048 | [5] -0.025 | [6] -0.02 | [7] -0.066 | [8] 0.057 | [9] 0.021 | [10] 0.004

GOLGA1 (UniProt Q92805)
inactive: [1] 0.081 | [2] 0.086 | [3] 0 | [4] 0.007 | [5] 0.121 | [6] -0.061 | [7] -0.019 | [8] -0.04 | [9] -0.031 | [10] 0.071

GMDS (UniProt O60547)
inactive: [1] 0.057 | [2] 0.012 | [3] 0.027 | [4] -0.088 | [5] -0.034 | [6] -0.023 | [7] 0.019 | [8] 0.042 | [9] -0.033 | [10] 0.019

GMEB1 (UniProt Q9Y692)
inactive: [1] -0.005 | [2] -0.01 | [3] 0.044 | [4] 0.03 | [5] -0.022 | [6] 0.025 | [7] -0.145 | [8] 0.029 | [9] 0.002 | [10] 0.001

GPATCH11 (UniProt Q8N954)
inactive: [1] -0.005 | [2] 0.001 | [3] 0.018 | [4] 0.094 | [5] 0.023 | [6] -0.036 | [7] -0.016 | [8] 0.03 | [9] 0.028 | [10] 0.015

GNPDA2 (UniProt Q8TDQ7)
inactive: [1] 0.007 | [2] 0.021 | [3] 0.029 | [4] 0.033 | [5] 0.044 | [6] -0.036 | [7] -0.061 | [8] 0.007 | [9] 0.03 | [10] -0.009

GPR89A (UniProt B7ZAQ6)
inactive: [1] -0.257 | [2] 0.011 | [3] 0.018 | [4] -0.107 | [5] 0.004 | [6] 0.017 | [7] -0.09 | [8] -0.096 | [9] 0.019 | [10] -0.037

GOT1 (UniProt P17174)
inactive: [1] -0.004 | [2] -0.023 | [3] -0.032 | [4] 0.008 | [5] 0.022 | [6] 0.017 | [7] -0.038 | [8] 0.051 | [9] -0.011 | [10] -0.023

GLA (UniProt P06280)
inactive: [1] -0.001 | [2] 0.014 | [3] -0.069 | [4] -0.171 | [5] -0.026 | [6] 0.013 | [7] -0.07 | [8] 0.042 | [9] 0.029 | [10] 0.004

GNAQ (UniProt P50148)
inactive: [1] -0.061 | [2] 0.007 | [3] -0.008 | [4] -0.064 | [5] -0.027 | [6] -0.053 | [7] -0.017 | [8] 0.024 | [9] 0.006 | [10] 0.1

GOT2 (UniProt P00505)
inactive: [1] -0.033 | [2] 0.003 | [3] -0.035 | [4] 0.018 | [5] 0.02 | [6] 0.006 | [7] 0.096 | [8] 0 | [9] -0.035 | [10] -0.012

GOLPH3L (UniProt Q9H4A5)
inactive: [1] 0.068 | [2] 0.025 | [3] 0.033 | [4] -0.055 | [5] -0.023 | [6] 0.048 | [7] -0.034 | [8] -0.08 | [9] 0.046 | [10] -0.092

GOLGA6B (UniProt A6NDN3)
inactive: [1] 0.015 | [2] -0.003 | [3] 0.2 | [4] 0.149 | [5] -0.006 | [6] 0.078 | [7] -0.086 | [8] 0.102 | [9] 0.101 | [10] -0.004

GOPC (UniProt Q9HD26)
inactive: [1] 0.026 | [2] 0.002 | [3] 0.043 | [4] -0.063 | [5] -0.031 | [6] -0.004 | [7] -0.06 | [8] -0.015 | [9] 0.025 | [10] -0.014

GGT7 (UniProt Q9UJ14)
inactive: [1] 0.003 | [2] 0.029 | [3] 0.007 | [4] 0.037 | [5] -0.014 | [6] -0.014 | [7] -0.003 | [8] 0.027 | [9] 0.097 | [10] 0.032

GLRX3 (UniProt O76003)
inactive: [1] -0.025 | [2] -0.007 | [3] -0.008 | [4] 0.043 | [5] 0.025 | [6] -0.039 | [7] 0.02 | [8] 0.015 | [9] -0.026 | [10] -0.035

GNPAT (UniProt O15228)
inactive: [1] 0.005 | [2] 0.043 | [3] 0.102 | [4] 0.018 | [5] 0.023 | [6] -0.003 | [7] -0.061 | [8] -0.062 | [9] 0.039 | [10] -0.04
